The nature of data set [1]: Octanol- water partition coefficient was determined.
The species entered for data set [2] is Rattus norvegicus. Kind of data set: Evaluated for antiinflammatory activity in granuloma bioassay and expressed as relative adrenal weight. Format: functional. The method in brief: (§1)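 Male Sprague–Dawley rats (100–200 g), acclimated 1 week under controlled lighting. Each rat got one cotton pellet (35 ± 1 mg) loaded with 2 mg steroid in acetone and one vehicle pellet; controls got two vehicle pellets. Rats were killed 7 days later. Readouts: thymus and adrenal weights, initial/final body weight, plasma corticosterone by 3H radioimmunoassay of cardiac blood. Mean ± SEM, n=6, Student's t test.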

The species named for data set [3] is Rattus norvegicus. Put plainly: Evaluated for antiinflammatory activity in granuloma bioassay and expressed as relative thymus weight. Format: functional. The method, boiled down:
as §1

The source of these data is ChEMBL document CHEMBL1123844, “Synthesis of new antiinflammatory steroidal 20-carboxamides: (20R)- and (20S)-21-(N-substituted amino)-11 beta,17,20-trihydroxy-3,21-dioxo-1,4- pregnadiene” (J Med Chem, 1987).

For the molecule `CCNC(=O)[C@@H](O)[C@@]1(O)CC[C@H]2[C@@H]3CCC4=CC(=O)C=C[C@]4(C)[C@H]3[C@@H](O)C[C@@]21C`, the Partition coefficient in data set [1] is on record as 16.3. The same molecule gave a Relative adrenal weight in the data set filed under Rattus norvegicus [2] of 12.9 mg 100g-1. In the data set filed under Rattus norvegicus [3], this molecule came in with a Relative thymus weight of 256.8 mg 100g-1.
The like results for `CCNC(=O)[C@H](O)[C@@]1(O)CC[C@H]2[C@@H]3CCC4=CC(=O)C=C[C@]4(C)[C@H]3[C@@H](O)C[C@@]21C` were, in that order, 17.5, 15.7 mg 100g-1 and 204.9 mg 100g-1.
